Measurements: PubChem BioAssay AID2685 (National Center for Advancing Translational Sciences (NCATS), 2010)
Screen size: about 320,000 compounds; about 2,100 (0.66%) were called active. The shares of active, inactive and inconclusive entries below differ from those in the screen. Calls follow the shape of the dose curve; as a rule, active = well fitted inhibition curve with a large enough effect in the signal ratio, with a control signal flat (not every such curve was filed as active); inconclusive = small, poorly fitted or top-dose-only effect, or effect the other way, or a change in a side signal; inactive = flat fitted curve, though single readings scatter; the % refers to the signal ratio. Where the call is inconclusive, the potency comes from a doubtful curve fit.

assay: qHTS Assay for Lipid Storage Modulators in Drosophila S3 Cells; settings: BODIPY lipid droplet fluorescence, 18-24 h, cells fed with added oleic acid; lipid storage change, negative = inhibition: at 46.1 µM (top of the series) unless noted
Summary of the method: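 Drosophila S3 cells got compounds at several concentrations plus oleic acid (400 uM solution). Laser-scanning cytometry with 488 nm excitation read lipid droplets at 500-530 nm and cells at 575-640 nm. Percent activity was relative to 20 uM Triacsin C.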
% is scaled to controls: 0 for no effect and ±100 for the full control effect; potency is read from the fitted curve at half-maximal effect.

Question: For `NC(=O)C1(N2CCCCC2)CCN(Cc2ccccc2Cl)CC1`, which lipid storage change, negative = inhibition is on record?
Answer: inconclusive: 10.1%

Question: Which Potency does the source give for `CC1CCCCC12NC(=O)N(CC(=O)Nc1cccc(S(=O)(=O)N3CCCCC3)c1)C2=O` (configuration not stated) here?
Answer: inconclusive: 580 nM [activator, single point]

Question: Which lipid storage change, negative = inhibition does the source give for `COc1ccc(OC)c(S(=O)(=O)N2CCC(C(=O)NCc3ccc4c(c3)OCO4)CC2)c1` here?
Answer: inconclusive: 18.2%

Question: With `O=C(Nc1cccc(C(F)(F)F)c1)/C(=C/c1ccco1)NC(=O)c1cccs1` as the molecule, how does the lipid storage change, negative = inhibition read?
Answer: inconclusive: -32.6%

Question: Which lipid storage change, negative = inhibition does the source give for `CCN(CC)CCn1c(NCc2cccc(OC)c2)nc2ccccc21` here?
Answer: inconclusive: 2.28%

Question: With `Cc1cccc(NC(=O)c2ccc3nccnc3c2)n1` as the molecule, how does the Potency read?
Answer: inconclusive: 517 nM [falling, full curve]

Question: Which lipid storage change, negative = inhibition does the source give for `CCCC(c1nnnn1CCOC)N(Cc1cc2cc(C)c(C)cc2[nH]c1=O)CC1CCCO1` (configuration not stated) here?
Answer: inconclusive: -4.54%

Question: With `COc1ccc(N2CCN(S(=O)(=O)c3cn(C)cn3)CC2)cc1` as the molecule, how does the Potency read?
Answer: inconclusive: 1640 nM [activator, full curve]

Question: For `CSCCC(NC(=O)c1ccccc1Cl)C(=O)N1CCC1` (configuration not stated), which lipid storage change, negative = inhibition is on record?
Answer: inconclusive

Question: With `COc1cccc(NC(=O)CN(C)C(=O)c2cccnc2Sc2ccc(C)c(C)c2)c1` as the molecule, how does the lipid storage change, negative = inhibition read?
Answer: inconclusive: 15.8%

Question: With `CN1C(=O)C(N=Nc2ccccc2C(=O)O)N(C)C1=S` (configuration not stated) as the molecule, how does the lipid storage change, negative = inhibition read?
Answer: inconclusive: -22.3%

Question: For `Cn1c(-c2cccc3ccccc23)n[nH]c1=S`, which lipid storage change, negative = inhibition is on record?
Answer: inconclusive: 37%

Question: With `COc1cc(/C=C/C(=O)OCC(=O)NC(=O)NC(C)C)ccc1OCC#N` as the molecule, how does the lipid storage change, negative = inhibition read?
Answer: inconclusive: 16.9%

Question: Which lipid storage change, negative = inhibition does the source give for `Cc1cc(C)cc(NC(=O)CSc2nc3[nH]ncc3c(=O)[nH]2)c1` here?
Answer: inconclusive: -1.63%

Question: Which lipid storage change, negative = inhibition does the source give for `N#CCC(=O)Nc1ccc(C(=O)OCC(=O)N(C2CCCCC2)C2CCCCC2)cc1` here?
Answer: inconclusive: -47.9%

Question: Which lipid storage change, negative = inhibition does the source give for `CCCN(Cc1cc2cc(C)ccc2[nH]c1=O)C(=O)c1cccc(OC)c1` here?
Answer: inconclusive: -6.71%

Question: With `C/C(=N\NS(=O)(=O)c1ccc(C)cc1)c1ccc(Br)s1` as the molecule, how does the Potency read?
Answer: inconclusive: 1160 nM [falling, full curve, poor fit]

Question: With `O=C(OCc1cnc(Cl)s1)c1c(F)cccc1F` as the molecule, how does the lipid storage change, negative = inhibition read?
Answer: inconclusive: 3.58% [at 9.22 µM]

Question: For `COc1ccc(NS(=O)(=O)c2ccc(S(=O)(=O)N(C)C)cc2)cc1S(N)(=O)=O`, which Potency is on record?
Answer: inconclusive: 116 nM [activator, full curve, poor fit]

Question: For `CCCC(=O)Nc1ccc(C(=O)N/N=C/c2ccc([N+](=O)[O-])o2)cc1`, which Potency is on record?
Answer: active: 14600 nM

Question: For `COc1ccccc1CN1CC(C(=O)NCCC2=CCCCC2)CCC1=O` (configuration not stated), which lipid storage change, negative = inhibition is on record?
Answer: inconclusive: -27.8%

Question: With `CCOc1ccccc1-n1cnc(C#N)c1N` as the molecule, how does the lipid storage change, negative = inhibition read?
Answer: inconclusive: -18%
